We go through 15 molecules from PubChem BioAssay AID328 (DTP/NCI, 2004).

The subject of the assay is BDF1 mice, P388 leukemia ip, median survival T/C. Nature of the assay: NCI In Vivo Anticancer Drug Screen. Data for tumor model P388 Leukemia (intraperitoneal) in B6D2F1 (BDF1) mice. To be noted: T/C endpoint: median survival time, higher T/C = longer survival. The method in brief:
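Survival ratio, drug arm over vehicle arm, in mice with a transplanted tumour.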

Where [1] appears, read: dose: 25.0 mg/kg/injection, schedule: Q01DX009 (ip), vehicle: saline with Tween-80.
[2] abbreviates: dose: 50.0 mg/kg/injection, schedule: Q01DX009 (ip), vehicle: saline with Tween-80.
Where [3] appears, read: dose: 100.0 mg/kg/injection, schedule: Q01DX009 (ip), vehicle: saline with Tween-80.
The mark [4] stands for this setting: dose: 200.0 mg/kg/injection, schedule: Q01DX009 (ip), vehicle: saline with Tween-80.
Where [5] appears, read: dose: 0.75 mg/kg/injection, schedule: Q01DX010 (ip), vehicle: saline.
[6] abbreviates: dose: 1.0 mg/kg/injection, schedule: Q01DX010 (ip), vehicle: saline.
The mark [7] stands for this setting: dose: 1.5 mg/kg/injection, schedule: Q01DX010 (ip), vehicle: saline.
Setting [8] is: dose: 3.0 mg/kg/injection, schedule: Q01DX010 (ip), vehicle: saline.

The structures appear in SMILES notation. The list is a part of this screen's results and no random one: it is rich in T/C values a quarter to a half above the control, in often repeated tests (any T/C) and in doses without a T/C. Further doses and runs are listed elsewhere. T/C gives the treated animals as a percentage of the vehicle group. Some entries give survivors of the animals treated and no T/C: the source files T/C as zero there, which appears to mark a toxic dose or a test without result, not a measured value. Some doses without a T/C left all or most animals alive at the check, yet need not have been tolerated: survival well below the control is almost never listed, so the zero probably covers shortened survival too. Survivors were counted at the toxicity check, usually on the fifth day, unless a day is given; later deaths do not show. Schedules are NCI's codes, taken here to give the interval after Q, in days (D) or hours (H), and the number of doses after X. Some doses were run more than once; their values stand side by side, smallest first. Where survival is the endpoint, this PubChem deposit counts one and a half times the control or more as active, and values a quarter to a half above the control carry no call in these data; other NCI protocols may use other cut-offs. Some T/C values carry the count of animals alive at the toxicity check (mostly the fifth day); without a count, all were alive then.

Regarding `CN=C(N)c1ccc(N=C(N)c2ccc(N=C(N)c3ccc(NC(=O)Nc4cccc(NC(=O)Nc5ccc(C(N)=Nc6ccc(C(N)=Nc7ccc(C(N)=NC)cc7)cc6)cc5)c4)cc3)cc2)cc1`, the T/C was 130 % of control (dose: 1.3 mg/kg/injection, schedule: Q01DX009 (ip), vehicle: saline with Tween-80); 138 and 141 % of control (dose: 2.0 mg/kg/injection, schedule: Q01DX009 (ip), vehicle: saline with Tween-80); 141 % of control (dose: 25.0 mg/kg/injection, schedule: Q04DX003 (ip), vehicle: saline with Tween-80); 131 % of control [5 of 6 alive] (dose: 75.0 mg/kg/injection, schedule: Q04DX003 (ip), vehicle: saline with Tween-80). In addition, the survivor count is listed as 6 of 6 (dose: 75.0 mg/kg/injection, schedule: Q01DX009 (ip), vehicle: saline with Tween-80) and 0 of 1 (dose: 150.0 mg/kg/injection, schedule: Q04DX003 (ip), vehicle: saline with Tween-80).

As to `S=c1[nH]c2ccccc2s1`, the survivor count (dose: 100.0 mg/kg/injection, schedule: Q04DX003 (ip), vehicle: Klucel (hydroxypropylcellulose) (HPC)) is listed as 6 of 6.

On to `CC/C=N/NC(N)=S`, for which the survivor count under setting [1] is reported as 0 of 6.

On to `COC(=O)c1nc2c(n(C)/c1=N/C(=O)Nc1ccccc1)CCCC2`, for which the T/C under setting [2] is 135 % of control and the T/C under setting [3] was 134 % of control [5 of 6 alive]. Also, under setting [4], the survivor count is 4 of 6.

Regarding `CC(C)(CBr)C(=O)N1CCN(C(=O)C(C)(C)CBr)CC1`, the T/C (dose: 13.0 mg/kg/injection, schedule: Q04DX003 (ip), vehicle: Klucel (hydroxypropylcellulose) (HPC)) is 136 % of control. Further, the survivor count (dose: 150.0 mg/kg/injection, schedule: Q04DX003 (ip), vehicle: Klucel (hydroxypropylcellulose) (HPC)) is recorded as 5 of 6.

With `C=CS(=O)(=O)Cc1ccccc1`, the survivor count (dose: 100.0 mg/kg/injection, schedule: Q04DX003 (ip), vehicle: saline with Tween-80) was 1 of 6.

As to `CCCCN(CCCC)CCCC#N`, the T/C was 129 % of control under setting [3]; 129 % of control (dose: 100.0 mg/kg/injection, schedule: Q01DX009 (ip), vehicle: saline); 125 % of control (dose: 150.0 mg/kg/injection, schedule: Q01DX009 (ip), vehicle: saline with Tween-80).

Turning to `CCOc1ccn(CC(=O)c2ccc([N+](=O)[O-])o2)c(=O)n1`, the survivor count under setting [4] was 2 of 6.

In the case of `Cc1cccc(/C=N\OCc2ccccc2)n1`, the T/C (dose: 200.0 mg/kg/injection, schedule: Q04DX003 (ip), vehicle: saline with Tween-80) is 136 % of control.

In the case of `N[C@H](C(=O)O)[C@H]1ON=C(Cl)[C@@H]1O`, the T/C (dose: 4.0 mg/kg/injection, schedule: Q01DX009 (ip), vehicle: saline) is 138 % of control; the T/C (dose: 15.0 mg/kg/injection, schedule: Q01DX009 (ip), vehicle: saline) is 149 % of control; the T/C (dose: 22.0 mg/kg/injection, schedule: Q01DX009 (ip), vehicle: other) was 141 % of control; the T/C (dose: 66.0 mg/kg/injection, schedule: Q01DX009 (ip), vehicle: other) is 145 % of control; the T/C (dose: 100.0 mg/kg/injection, schedule: Q04DX003 (ip), vehicle: saline) is 129 % of control; the T/C (dose: 150.0 mg/kg/injection, schedule: Q01DX009 (ip), vehicle: other) is 125 % of control. Moreover, the T/C runs as follows: (dose: 200.0 mg/kg/injection, schedule: Q04DX003 (ip), vehicle: saline) 148 % of control; (dose: 400.0 mg/kg/injection, schedule: Q01DX009 (ip), vehicle: saline with Tween-80) 140 % of control.

On to `Cc1cc2nc3n(c2cc1C)C(C)(C)N=C(N)N3`, for which the survivor count under setting [4] is recorded as 1 of 6.

On to `CCCNC(=O)OCc1c(COC(=O)NCCC)c(-c2ccc(Cl)c(Cl)c2)n2c1CCC2`, for which the T/C (dose: 12.5 mg/kg/injection, schedule: Q01DX009 (ip), vehicle: other) is 133 % of control. Besides, the survivor count reads like this: (dose: 100.0 mg/kg/injection, schedule: Q01DX009 (ip), vehicle: other) 5 of 6; (dose: 200.0 mg/kg/injection, schedule: Q01DX009 (ip), vehicle: other) 0 of 6.

As for `COC(=O)[C@@H]1c2cc3c(c(O)c2[C@@H](OC2OC(C)C(OC)C(C)(OC)C2OC)C[C@]1(C)O)C(=O)c1c(O)cc2c(c1C3=O)O[C@H]1O[C@]2(C)[C@H](O)[C@@H](N(C)C)[C@@H]1O` (stereo partly specified), the T/C (dose: 0.13 mg/kg/injection, schedule: Q01DX010 (ip), vehicle: saline) was 140 % of control; the T/C (dose: 0.19 mg/kg/injection, schedule: Q01DX010 (ip), vehicle: saline) was 127 % of control; the T/C (dose: 0.25 mg/kg/injection, schedule: Q01DX009 (ip), vehicle: saline) is 140 % of control; the T/C (dose: 0.25 mg/kg/injection, schedule: Q01DX010 (ip), vehicle: saline) was 127 [5 of 6 alive] and 140 % of control; the T/C (dose: 0.5 mg/kg/injection, schedule: Q01DX009 (ip), vehicle: saline) is 140 % of control; the T/C (dose: 0.5 mg/kg/injection, schedule: Q01DX010 (ip), vehicle: saline) is 127 % of control. Besides, the T/C is, setting by setting: (dose: 0.65 mg/kg/injection, schedule: Q04DX003 (ip), vehicle: water) 144 % of control; (dose: 0.75 mg/kg/injection, schedule: Q01DX001 (ip), vehicle: saline) 127 % of control; under setting [5], 122, 131, 145 % of control; under setting [6], 140 % of control; (dose: 1.08 mg/kg/injection, schedule: Q04DX003 (ip), vehicle: water) 147 % of control; (dose: 1.3 mg/kg/injection, schedule: Q04DX003 (ip), vehicle: water) 130 % of control. Moreover, the T/C is 127 % of control (dose: 1.5 mg/kg/injection, schedule: Q01DX001 (ip), vehicle: saline); 131 [9 of 10 alive] and 140 % of control under setting [7]; 147 % of control (dose: 1.8 mg/kg/injection, schedule: Q04DX003 (ip), vehicle: water); 136 % of control (dose: 3.0 mg/kg/injection, schedule: Q01DX001 (ip), vehicle: saline); 145 % of control under setting [8]; 131 % of control (dose: 6.0 mg/kg/injection, schedule: Q01DX001 (ip), vehicle: saline). Besides, the T/C is 145 % of control [7 of 10 alive] (dose: 12.0 mg/kg/injection, schedule: Q01DX001 (ip), vehicle: saline) and 130 % of control (dose: 60.0 micrograms/kg/injection, schedule: Q01DX010 (ip), vehicle: saline). Moreover, the survivor count (dose: 0.38 mg/kg/injection, schedule: Q01DX010 (ip), vehicle: saline) is 6 of 6; the survivor count under setting [5] was 6 of 6; the survivor count under setting [6] is reported as 7 of 7; the survivor count under setting [7] was 5 of 6 and 6 of 6; the survivor count (dose: 2.0 mg/kg/injection, schedule: Q01DX010 (ip), vehicle: saline) is 5 of 7 and 6 of 6; the survivor count under setting [8] is 0 of 6, 2 of 6, 10 of 10. Besides, the survivor count reads like this: (dose: 3.6 mg/kg/injection, schedule: Q04DX003 (ip), vehicle: water) 7 of 8; (dose: 4.0 mg/kg/injection, schedule: Q01DX010 (ip), vehicle: saline) 3 of 6; (dose: 6.0 mg/kg/injection, schedule: Q01DX010 (ip), vehicle: saline) 4 of 10 and 10 of 10; (dose: 6.0 mg/kg/injection, schedule: Q04DX003 (ip), vehicle: water) 2 of 8; (dose: 12.0 mg/kg/injection, schedule: Q01DX010 (ip), vehicle: saline) 0 of 10 and 1 of 10.

For `Clc1ccc2nncn2n1`, the survivor count is on record as 7 of 7 under setting [1], 7 of 7 under setting [2] and 7 of 7 under setting [3].

Turning to `COC12C(COC(N)=O)C3=C(C(=O)C(C)=C(N)C3=O)N1CC1C2N1C` (stereo unspecified), the survivor count (dose: 32.0 mg/kg/injection, schedule: Q01DX009 (ip), vehicle: saline) is 10 of 10.
